The values that follow come from the supplement of paper PMC12067093, “Discovery and optimisation of a covalent ligand for TRIM25 and its application to targeted protein ubiquitination” (Chemical Science, 2025).

Chains of the proteins cited; added tags and fusions are not shown. Lines headed by an entry give the natural chain unless they say otherwise; changes in a name come on top.
UniProt Q12906, whole entry, looked up: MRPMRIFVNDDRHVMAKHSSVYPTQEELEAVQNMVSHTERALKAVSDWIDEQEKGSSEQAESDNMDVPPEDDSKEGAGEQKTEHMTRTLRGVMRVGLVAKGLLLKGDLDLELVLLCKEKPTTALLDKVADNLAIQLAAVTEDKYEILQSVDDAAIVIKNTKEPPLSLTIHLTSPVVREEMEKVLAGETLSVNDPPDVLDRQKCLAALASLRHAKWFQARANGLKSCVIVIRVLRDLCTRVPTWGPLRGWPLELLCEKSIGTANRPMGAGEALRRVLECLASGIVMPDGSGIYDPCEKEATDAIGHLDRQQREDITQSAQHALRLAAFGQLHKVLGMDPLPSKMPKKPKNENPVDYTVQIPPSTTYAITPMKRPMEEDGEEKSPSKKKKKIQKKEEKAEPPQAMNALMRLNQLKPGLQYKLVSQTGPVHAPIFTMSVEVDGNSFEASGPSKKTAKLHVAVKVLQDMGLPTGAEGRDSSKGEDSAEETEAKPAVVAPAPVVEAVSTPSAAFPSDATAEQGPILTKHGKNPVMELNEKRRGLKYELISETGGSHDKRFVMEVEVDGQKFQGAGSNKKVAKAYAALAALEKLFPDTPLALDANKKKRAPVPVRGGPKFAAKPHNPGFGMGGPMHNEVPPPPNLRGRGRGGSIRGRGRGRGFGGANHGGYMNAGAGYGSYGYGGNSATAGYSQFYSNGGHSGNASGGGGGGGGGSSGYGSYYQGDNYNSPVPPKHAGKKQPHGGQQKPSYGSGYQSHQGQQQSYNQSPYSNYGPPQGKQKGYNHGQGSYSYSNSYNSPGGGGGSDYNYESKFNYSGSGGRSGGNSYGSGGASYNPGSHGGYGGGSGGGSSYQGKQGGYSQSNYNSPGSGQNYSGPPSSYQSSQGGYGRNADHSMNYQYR
UniProt Q9H0C8: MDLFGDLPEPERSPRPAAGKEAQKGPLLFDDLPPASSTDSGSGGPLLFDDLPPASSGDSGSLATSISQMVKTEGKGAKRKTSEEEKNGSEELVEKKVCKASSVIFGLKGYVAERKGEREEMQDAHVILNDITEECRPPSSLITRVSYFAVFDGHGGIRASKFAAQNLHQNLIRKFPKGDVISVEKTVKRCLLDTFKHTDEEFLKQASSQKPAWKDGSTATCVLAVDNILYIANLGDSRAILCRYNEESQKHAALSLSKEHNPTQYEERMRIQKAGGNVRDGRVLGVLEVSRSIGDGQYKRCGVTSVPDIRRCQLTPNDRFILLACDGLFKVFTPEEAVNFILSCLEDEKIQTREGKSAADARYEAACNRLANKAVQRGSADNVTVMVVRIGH
UniProt P11717, whole entry, looked up: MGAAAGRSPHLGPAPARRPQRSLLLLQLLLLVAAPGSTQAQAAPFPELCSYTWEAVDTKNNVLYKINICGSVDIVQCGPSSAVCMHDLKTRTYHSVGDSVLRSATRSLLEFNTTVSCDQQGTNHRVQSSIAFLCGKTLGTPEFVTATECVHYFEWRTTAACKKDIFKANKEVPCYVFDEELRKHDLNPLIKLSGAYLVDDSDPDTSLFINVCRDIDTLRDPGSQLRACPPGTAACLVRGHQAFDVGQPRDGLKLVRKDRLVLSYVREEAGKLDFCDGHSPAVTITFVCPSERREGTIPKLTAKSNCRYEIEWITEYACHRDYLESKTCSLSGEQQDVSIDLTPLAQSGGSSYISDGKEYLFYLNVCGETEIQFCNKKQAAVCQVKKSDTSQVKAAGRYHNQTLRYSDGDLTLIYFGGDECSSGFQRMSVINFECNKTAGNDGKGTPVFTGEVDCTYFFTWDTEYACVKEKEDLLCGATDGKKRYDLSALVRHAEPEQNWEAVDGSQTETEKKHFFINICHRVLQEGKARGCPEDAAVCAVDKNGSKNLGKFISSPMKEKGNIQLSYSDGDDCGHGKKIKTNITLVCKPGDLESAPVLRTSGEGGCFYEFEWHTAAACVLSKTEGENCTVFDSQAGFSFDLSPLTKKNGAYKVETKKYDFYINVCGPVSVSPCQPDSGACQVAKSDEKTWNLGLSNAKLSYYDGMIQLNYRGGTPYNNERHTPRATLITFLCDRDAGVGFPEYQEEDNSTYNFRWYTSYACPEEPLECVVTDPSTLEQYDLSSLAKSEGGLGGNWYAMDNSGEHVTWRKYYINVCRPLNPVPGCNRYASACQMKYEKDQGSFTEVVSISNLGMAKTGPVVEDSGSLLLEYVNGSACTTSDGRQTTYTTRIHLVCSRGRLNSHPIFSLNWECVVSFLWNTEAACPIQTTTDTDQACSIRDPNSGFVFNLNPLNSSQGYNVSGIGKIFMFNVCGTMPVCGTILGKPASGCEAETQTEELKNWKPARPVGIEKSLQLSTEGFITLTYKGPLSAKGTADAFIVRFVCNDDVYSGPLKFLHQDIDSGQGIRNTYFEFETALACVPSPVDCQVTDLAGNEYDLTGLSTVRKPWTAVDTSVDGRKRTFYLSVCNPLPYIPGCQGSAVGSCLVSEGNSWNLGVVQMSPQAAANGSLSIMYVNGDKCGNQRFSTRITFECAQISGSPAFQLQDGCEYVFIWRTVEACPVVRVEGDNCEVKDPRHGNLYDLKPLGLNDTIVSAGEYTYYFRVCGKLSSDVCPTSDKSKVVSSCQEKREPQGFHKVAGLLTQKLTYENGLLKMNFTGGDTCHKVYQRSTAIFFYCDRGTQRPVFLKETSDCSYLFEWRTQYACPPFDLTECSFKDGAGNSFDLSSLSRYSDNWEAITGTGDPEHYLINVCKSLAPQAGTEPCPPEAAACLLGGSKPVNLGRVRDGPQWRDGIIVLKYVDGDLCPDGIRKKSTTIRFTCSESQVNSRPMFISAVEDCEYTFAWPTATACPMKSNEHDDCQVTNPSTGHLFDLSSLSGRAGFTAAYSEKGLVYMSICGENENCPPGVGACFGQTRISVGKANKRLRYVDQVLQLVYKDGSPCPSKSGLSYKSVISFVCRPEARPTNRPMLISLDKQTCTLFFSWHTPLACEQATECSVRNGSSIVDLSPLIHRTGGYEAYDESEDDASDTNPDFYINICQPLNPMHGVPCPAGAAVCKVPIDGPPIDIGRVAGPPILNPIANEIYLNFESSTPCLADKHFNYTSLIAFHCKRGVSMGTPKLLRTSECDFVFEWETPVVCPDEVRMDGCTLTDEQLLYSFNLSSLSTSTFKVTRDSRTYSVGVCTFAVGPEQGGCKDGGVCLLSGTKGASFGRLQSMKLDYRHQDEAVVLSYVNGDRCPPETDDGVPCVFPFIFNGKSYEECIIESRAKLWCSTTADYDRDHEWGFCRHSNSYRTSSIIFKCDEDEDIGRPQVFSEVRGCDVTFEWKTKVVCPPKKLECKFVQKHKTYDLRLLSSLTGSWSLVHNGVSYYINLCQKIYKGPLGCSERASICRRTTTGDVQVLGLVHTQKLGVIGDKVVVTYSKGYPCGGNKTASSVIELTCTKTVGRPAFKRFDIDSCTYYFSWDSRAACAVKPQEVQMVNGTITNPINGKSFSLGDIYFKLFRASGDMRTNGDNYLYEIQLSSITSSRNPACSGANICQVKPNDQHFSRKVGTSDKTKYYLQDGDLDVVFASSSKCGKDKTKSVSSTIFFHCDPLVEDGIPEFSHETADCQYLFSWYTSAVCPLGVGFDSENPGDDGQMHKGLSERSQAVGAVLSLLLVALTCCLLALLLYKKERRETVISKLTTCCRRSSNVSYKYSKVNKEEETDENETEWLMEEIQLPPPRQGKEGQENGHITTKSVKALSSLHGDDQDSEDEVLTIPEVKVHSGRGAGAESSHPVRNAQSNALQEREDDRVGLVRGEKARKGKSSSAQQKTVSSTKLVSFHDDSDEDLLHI
UniProt Q9ULG1, whole entry, looked up: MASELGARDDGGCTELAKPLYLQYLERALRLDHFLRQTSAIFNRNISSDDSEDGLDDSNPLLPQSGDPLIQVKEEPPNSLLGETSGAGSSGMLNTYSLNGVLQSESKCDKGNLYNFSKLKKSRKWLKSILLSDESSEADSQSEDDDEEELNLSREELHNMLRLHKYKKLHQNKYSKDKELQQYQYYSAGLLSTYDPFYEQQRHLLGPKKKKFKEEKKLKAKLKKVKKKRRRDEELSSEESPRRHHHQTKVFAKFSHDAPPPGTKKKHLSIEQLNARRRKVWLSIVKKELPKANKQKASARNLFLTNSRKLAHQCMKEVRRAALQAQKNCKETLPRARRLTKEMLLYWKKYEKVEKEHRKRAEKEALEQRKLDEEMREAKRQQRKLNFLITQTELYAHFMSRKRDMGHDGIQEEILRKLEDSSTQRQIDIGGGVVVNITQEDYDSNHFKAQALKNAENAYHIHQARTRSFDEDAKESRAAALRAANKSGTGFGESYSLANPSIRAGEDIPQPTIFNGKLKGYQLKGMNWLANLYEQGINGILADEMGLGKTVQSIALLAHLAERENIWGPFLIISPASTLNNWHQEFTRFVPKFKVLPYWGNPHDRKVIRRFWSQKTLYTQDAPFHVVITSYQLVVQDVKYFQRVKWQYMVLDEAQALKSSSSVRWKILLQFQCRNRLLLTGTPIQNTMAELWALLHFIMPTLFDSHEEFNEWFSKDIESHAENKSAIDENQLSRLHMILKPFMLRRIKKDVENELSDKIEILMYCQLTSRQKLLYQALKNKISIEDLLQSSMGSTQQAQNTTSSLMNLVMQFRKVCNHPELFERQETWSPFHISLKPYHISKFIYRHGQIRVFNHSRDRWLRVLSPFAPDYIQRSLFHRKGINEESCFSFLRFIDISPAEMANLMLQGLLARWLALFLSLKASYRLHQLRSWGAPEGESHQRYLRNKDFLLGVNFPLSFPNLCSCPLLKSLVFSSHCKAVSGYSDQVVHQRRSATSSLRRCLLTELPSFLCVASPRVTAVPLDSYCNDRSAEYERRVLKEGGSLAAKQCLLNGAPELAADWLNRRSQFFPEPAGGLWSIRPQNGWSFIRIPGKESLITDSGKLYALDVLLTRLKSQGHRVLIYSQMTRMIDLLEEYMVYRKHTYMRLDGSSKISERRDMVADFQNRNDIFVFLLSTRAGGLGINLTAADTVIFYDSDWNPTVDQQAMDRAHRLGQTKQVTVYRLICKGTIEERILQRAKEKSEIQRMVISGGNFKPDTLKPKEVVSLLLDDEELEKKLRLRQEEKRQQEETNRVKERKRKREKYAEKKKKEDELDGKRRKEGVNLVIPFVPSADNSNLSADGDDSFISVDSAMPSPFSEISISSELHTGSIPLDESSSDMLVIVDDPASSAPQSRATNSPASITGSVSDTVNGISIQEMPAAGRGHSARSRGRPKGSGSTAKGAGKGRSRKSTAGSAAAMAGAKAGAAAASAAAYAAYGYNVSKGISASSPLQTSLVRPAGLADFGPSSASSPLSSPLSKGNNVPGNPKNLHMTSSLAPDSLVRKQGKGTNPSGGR
UniProt O75874, whole entry, looked up: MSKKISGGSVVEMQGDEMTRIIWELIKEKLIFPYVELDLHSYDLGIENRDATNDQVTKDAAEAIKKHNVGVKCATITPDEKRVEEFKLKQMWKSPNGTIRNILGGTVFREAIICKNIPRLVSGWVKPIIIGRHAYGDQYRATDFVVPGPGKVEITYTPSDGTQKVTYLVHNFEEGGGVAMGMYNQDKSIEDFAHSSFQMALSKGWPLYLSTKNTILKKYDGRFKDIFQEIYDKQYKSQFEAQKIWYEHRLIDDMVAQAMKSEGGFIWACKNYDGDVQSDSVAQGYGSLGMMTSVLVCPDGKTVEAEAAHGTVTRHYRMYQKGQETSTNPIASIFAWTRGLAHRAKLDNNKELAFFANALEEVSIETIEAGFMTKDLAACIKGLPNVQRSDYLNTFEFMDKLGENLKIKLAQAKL
UniProt Q5T6J7: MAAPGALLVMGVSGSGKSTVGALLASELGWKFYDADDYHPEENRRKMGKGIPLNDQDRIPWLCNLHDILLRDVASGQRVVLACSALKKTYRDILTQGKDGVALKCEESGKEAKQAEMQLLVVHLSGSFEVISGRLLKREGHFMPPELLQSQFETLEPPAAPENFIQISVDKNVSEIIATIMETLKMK
UniProt P35475: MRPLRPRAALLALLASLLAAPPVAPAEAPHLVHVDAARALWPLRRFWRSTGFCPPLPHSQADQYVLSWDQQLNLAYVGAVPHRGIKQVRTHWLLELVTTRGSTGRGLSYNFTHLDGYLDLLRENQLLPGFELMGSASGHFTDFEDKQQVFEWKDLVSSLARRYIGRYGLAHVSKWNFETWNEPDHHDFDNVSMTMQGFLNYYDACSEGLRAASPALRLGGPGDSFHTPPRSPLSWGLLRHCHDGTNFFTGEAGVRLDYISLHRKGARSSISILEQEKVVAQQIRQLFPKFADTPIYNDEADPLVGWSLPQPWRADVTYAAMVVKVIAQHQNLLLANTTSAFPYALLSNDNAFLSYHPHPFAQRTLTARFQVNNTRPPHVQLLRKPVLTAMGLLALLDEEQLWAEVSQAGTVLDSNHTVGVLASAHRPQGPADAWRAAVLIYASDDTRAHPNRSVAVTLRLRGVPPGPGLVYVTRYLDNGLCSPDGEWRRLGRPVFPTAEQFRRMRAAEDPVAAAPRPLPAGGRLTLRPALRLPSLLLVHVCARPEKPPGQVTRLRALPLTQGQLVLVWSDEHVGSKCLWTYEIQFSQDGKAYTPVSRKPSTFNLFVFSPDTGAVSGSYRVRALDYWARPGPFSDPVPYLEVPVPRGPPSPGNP

Compound in the assay: CC1Cc2ccccc2N1C(=O)C1CCCN(C1)C(=O)CCl (mixture of isomers) [TRIM25 ligand 11 (diastereomer mixture)]
Briefly: probe-labelled cysteine peptide fold change vs DMSO (competition) (log2 fold change); higher = less target engagement (more negative = stronger competition). Particulars: THP-1, incubation time: 4 h.

This is one part of the list.
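Further: competitive chemoproteomic profiling in live THP-1 cells with an iodoacetamide desthiobiotin (IA-DTB) probe, comparing probe-labelled peptide intensities in compound-treated cells against DMSO-treated controls.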

Regarding “ILF3_Q12906_278_VLECLASGIVMPDGSGIYDPCEK (UniProt Q12906)”, the “probe-labelled cysteine peptide fold change” value (10 µM) came out at 0.108 and the “probe-labelled cysteine peptide fold change” value (50 µM) is -0.0629.

Consider “ILKAP_Q9H0C8_190_CLLDTFK (UniProt Q9H0C8)”, for which the “probe-labelled cysteine peptide fold change” value runs as follows: (10 µM) -0.0317; (50 µM) 0.0241.

As to “IGF2R_P11717_1461_YVDGDLCPDGIR (UniProt P11717)”, the “probe-labelled cysteine peptide fold change” value was -0.00683 (10 µM) and 0.0541 (50 µM).

For “IL1RAP_Q9NPH3_24_CDDWGLDTMR (UniProt Q9NPH3)”, the “probe-labelled cysteine peptide fold change” value is 0.0294 (10 µM) and -0.0106 (50 µM).

On to “INO80_Q9ULG1_1049_QCLLNGAPELAADWLNRR (UniProt Q9ULG1)”, for which the “probe-labelled cysteine peptide fold change” value is -0.0908 (10 µM) and -0.0701 (50 µM).

For the target “HUWE1_Q7Z6Z7_1252_AAFTCIK (UniProt Q7Z6Z7)”, the “probe-labelled cysteine peptide fold change” value (10 µM) is -0.109 and the “probe-labelled cysteine peptide fold change” value (50 µM) came to 0.197.

Consider “IKBKG_Q9Y6K9_396_RSPPEEPPDFCCPK (UniProt Q9Y6K9)”, for which the “probe-labelled cysteine peptide fold change” value was -0.0571 (10 µM) and 0.135 (50 µM).

Regarding “HUWE1_Q7Z6Z7_1401_AESPEEVACR (UniProt Q7Z6Z7)”, the “probe-labelled cysteine peptide fold change” value worked out at 0.0781 (10 µM) and 0.0153 (50 µM).

For the target “IDH1_O75874_269_SEGGFIWACK (UniProt O75874)”, the “probe-labelled cysteine peptide fold change” value (10 µM) is -0.0319 and the “probe-labelled cysteine peptide fold change” value (50 µM) was found to be 0.0185.

As to “IFT140_Q96RY7_155_HLTHCIFR (UniProt Q96RY7)”, the “probe-labelled cysteine peptide fold change” value is, setting by setting: (10 µM) 0.268; (50 µM) 0.13.

Consider “INF2_Q27J81_101_ISDALLQLTCVSCVR (UniProt Q27J81)”, for which the “probe-labelled cysteine peptide fold change” value is -0.284 (10 µM) and -0.0718 (50 µM).

As to HYI_Q5T013_102_ALGCPR (UniProt Q5T013), the “probe-labelled cysteine peptide fold change” value is -0.048 (10 µM) and 0.0102 (50 µM).

For “ILK_Q13418_346_FSFQCPGR (UniProt Q13418)”, the “probe-labelled cysteine peptide fold change” value (10 µM) stood at 0.00155 and the “probe-labelled cysteine peptide fold change” value (50 µM) is -0.0756.

Take “INO80_Q9ULG1_765_DVENELSDKIEILMYCQLTSR (UniProt Q9ULG1)”: the “probe-labelled cysteine peptide fold change” value reads like this: (10 µM) 0.0534; (50 µM) 0.241.

Consider “ILKAP_Q9H0C8_312_CQLTPNDR (UniProt Q9H0C8)”, for which the “probe-labelled cysteine peptide fold change” value was 0.0904 (10 µM) and 0.104 (50 µM).

Turning to “IFRD2_Q12894_147_EYVDCLTDK (UniProt Q12894)”, the “probe-labelled cysteine peptide fold change” value by setting is: (10 µM) -0.0616; (50 µM) -0.0507.

In the case of “IDH1_O75874_73_CATITPDEK (UniProt O75874)”, the “probe-labelled cysteine peptide fold change” value (10 µM) is -0.0431 and the “probe-labelled cysteine peptide fold change” value (50 µM) is -0.0307.

Consider “HTT_P42858_202_CRPYLVNLLPCLTR (UniProt P42858)”, for which the “probe-labelled cysteine peptide fold change” value runs as follows: (10 µM) -0.0475; (50 µM) -0.0186.

For the target “ILVBL_A1L0T0_354_KADVIVLAGTVCDFR (UniProt A1L0T0)”, the “probe-labelled cysteine peptide fold change” value reads like this: (10 µM) -0.0406; (50 µM) 0.133.

Regarding “IDNK_Q5T6J7_63_GIPLNDQDRIPWLCNLHDILLR (UniProt Q5T6J7)”, the “probe-labelled cysteine peptide fold change” value is -0.0642 (10 µM) and 0.0666 (50 µM).

For the target “IMMT_Q16891_697_LLSYASYCIEHGDLELAAK (UniProt Q16891)”, the “probe-labelled cysteine peptide fold change” value is, setting by setting: (10 µM) 0.348; (50 µM) 0.0287.

For “IARS_P41252_185_VMPFSTACNTPLSNFESHQNYK (UniProt P41252)”, the “probe-labelled cysteine peptide fold change” value runs as follows: (10 µM) 0.15; (50 µM) -0.0105.

Consider “INF2_Q27J81_971_QEEVCVIDALLADIR (UniProt Q27J81)”, for which the “probe-labelled cysteine peptide fold change” value by setting is: (10 µM) 0.00529; (50 µM) -0.0623.

On to “ILF3_Q12906_278_RVLECLASGIVMPDGSGIYDPCEK (UniProt Q12906)”, for which the “probe-labelled cysteine peptide fold change” value was -0.186 (10 µM) and 0.0157 (50 µM).

Regarding “INPP5B_P32019_475_FQFHNTSICVVNSHLAAHIEEYER (UniProt P32019)”, the “probe-labelled cysteine peptide fold change” value reads like this: (10 µM) 0.169; (50 µM) 0.191.

Consider “IDH1_O75874_379_DLAACIK (UniProt O75874)”, for which the “probe-labelled cysteine peptide fold change” value is -0.0207 (10 µM) and -0.0598 (50 µM).

As to “IKZF1_Q13422_254_EETNHSEMAEDLCK (UniProt Q13422)”, the “probe-labelled cysteine peptide fold change” value (10 µM) was found to be 0.0376 and the “probe-labelled cysteine peptide fold change” value (50 µM) is -0.0678.

As to “ICAM3_P32942_139_CQVEDGSPR (UniProt P32942)”, the “probe-labelled cysteine peptide fold change” value was -0.0448 (10 µM) and -0.112 (50 µM).

In the case of “HUWE1_Q7Z6Z7_3385_ACSPCSSQSSSSGICTDFWDLLVK (UniProt Q7Z6Z7)”, the “probe-labelled cysteine peptide fold change” value is, setting by setting: (10 µM) 0.0372; (50 µM) -0.102.

Turning to “IDH3G_P51553_333_NIANPTATLLASCMMLDHLK (UniProt P51553)”, the “probe-labelled cysteine peptide fold change” value (50 µM) was -0.0538.

Consider “IMPA1_P29218_24_QAGEVVCEAIK (UniProt P29218)”, for which the “probe-labelled cysteine peptide fold change” value is -0.0409 (10 µM) and 0.00892 (50 µM).

Turning to “IGF2BP2_Q9Y6M1_255_KENSGAAEKPVTIHATPEGTSEACR (UniProt Q9Y6M1)”, the “probe-labelled cysteine peptide fold change” value by setting is: (10 µM) -0.152; (50 µM) -0.066.

On to “IDH3A_P50213_351+359_CSDFTEEICR (UniProt P50213)”, for which the “probe-labelled cysteine peptide fold change” value (10 µM) is -0.0227 and the “probe-labelled cysteine peptide fold change” value (50 µM) is -0.189.

As for “IGFBP4_P22692_174_EDARPVPQGSCQSELHR (UniProt P22692)”, the “probe-labelled cysteine peptide fold change” value reads like this: (10 µM) -0.0871; (50 µM) -0.193.

In the case of “IFT122_Q9HBG6_519_CLDMSASR (UniProt Q9HBG6)”, the “probe-labelled cysteine peptide fold change” value amounted to 0.064 (10 µM) and 0.0958 (50 µM).

With “IDUA_P35475_481_YLDNGLCSPDGEWR (UniProt P35475)”, the “probe-labelled cysteine peptide fold change” value by setting is: (10 µM) -0.0418; (50 µM) -0.326.

“IKBKB_O14920_464_NNSCLSK (UniProt O14920)”: the “probe-labelled cysteine peptide fold change” value is, setting by setting: (10 µM) -0.0606; (50 µM) -0.138.

Turning to “IGF2R_P11717_1987_VVCPPK (UniProt P11717)”, the “probe-labelled cysteine peptide fold change” value reads like this: (10 µM) -0.121; (50 µM) 0.0903.

In the case of “INPP5A_Q14642_381_VVTYDHIGPNVCMGDHKPVFLAFR (UniProt Q14642)”, the “probe-labelled cysteine peptide fold change” value is -0.0561 (10 µM) and 0.0215 (50 µM).

For the target “IGF2R_P11717_572_GNIQLSYSDGDDCGHGKK (UniProt P11717)”, the “probe-labelled cysteine peptide fold change” value reads like this: (10 µM) -0.121; (50 µM) -0.178.
